Results from PMC10996989.
Results are given in words; binding and its absence hold for the method and conditions named. Binding seen in cells or lysates may run through a third protein. Some results given as binding are weak or reduced against the parent protein; the word gives no strength.

Protein sequences, listed by entry. Tags and fused reporters are not part of them. Residues count along the entry.
UniProt Q8R4B8: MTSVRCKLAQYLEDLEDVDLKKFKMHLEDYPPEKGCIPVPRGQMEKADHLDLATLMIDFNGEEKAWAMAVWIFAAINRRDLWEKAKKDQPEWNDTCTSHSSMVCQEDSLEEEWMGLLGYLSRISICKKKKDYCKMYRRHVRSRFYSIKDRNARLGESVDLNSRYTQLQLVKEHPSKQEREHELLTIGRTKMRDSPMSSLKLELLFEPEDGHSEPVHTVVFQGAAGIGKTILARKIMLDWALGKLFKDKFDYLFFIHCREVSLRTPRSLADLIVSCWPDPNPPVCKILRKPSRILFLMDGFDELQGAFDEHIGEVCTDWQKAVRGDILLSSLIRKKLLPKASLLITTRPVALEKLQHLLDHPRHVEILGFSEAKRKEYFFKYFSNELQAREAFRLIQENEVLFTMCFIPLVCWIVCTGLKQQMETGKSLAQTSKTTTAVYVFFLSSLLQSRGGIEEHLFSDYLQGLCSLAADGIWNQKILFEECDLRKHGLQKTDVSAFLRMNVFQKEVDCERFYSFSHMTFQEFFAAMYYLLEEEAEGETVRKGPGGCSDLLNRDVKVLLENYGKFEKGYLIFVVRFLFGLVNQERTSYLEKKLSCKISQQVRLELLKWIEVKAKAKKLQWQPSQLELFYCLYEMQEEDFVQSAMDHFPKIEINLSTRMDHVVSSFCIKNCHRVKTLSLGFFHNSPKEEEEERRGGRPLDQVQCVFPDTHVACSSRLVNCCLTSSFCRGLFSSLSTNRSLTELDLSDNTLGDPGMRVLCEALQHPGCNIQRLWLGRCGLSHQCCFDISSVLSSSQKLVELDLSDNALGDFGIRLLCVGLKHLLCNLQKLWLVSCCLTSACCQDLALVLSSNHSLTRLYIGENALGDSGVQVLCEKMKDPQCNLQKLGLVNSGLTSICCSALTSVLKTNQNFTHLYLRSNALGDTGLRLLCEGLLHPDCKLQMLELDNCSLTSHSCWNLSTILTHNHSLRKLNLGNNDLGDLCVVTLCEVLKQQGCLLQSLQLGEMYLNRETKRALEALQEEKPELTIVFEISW
UniProt P55065, residues 18-493: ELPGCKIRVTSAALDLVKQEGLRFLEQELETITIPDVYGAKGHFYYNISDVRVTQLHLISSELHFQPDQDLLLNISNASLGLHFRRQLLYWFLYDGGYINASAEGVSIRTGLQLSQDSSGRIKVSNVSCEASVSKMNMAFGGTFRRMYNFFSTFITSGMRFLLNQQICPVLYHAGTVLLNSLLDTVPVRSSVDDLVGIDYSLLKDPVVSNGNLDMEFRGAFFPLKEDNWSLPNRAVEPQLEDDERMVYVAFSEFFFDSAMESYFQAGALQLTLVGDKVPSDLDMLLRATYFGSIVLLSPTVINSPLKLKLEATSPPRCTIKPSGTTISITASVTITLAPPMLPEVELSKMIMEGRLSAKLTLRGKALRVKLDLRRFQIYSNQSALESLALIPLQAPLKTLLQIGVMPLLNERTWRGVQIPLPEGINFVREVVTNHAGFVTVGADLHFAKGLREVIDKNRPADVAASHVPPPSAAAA

Biological target: NOD-like receptor thermal protein domain associated protein 3 (mouse (endogenous in M6200)) (UniProt Q8R4B8)
Assay: co-IP; primary antibody (anti-PLTP, anti-NLRP3 or IgG) on protein A + G agarose, incubated with cellular protein overnight at 4°C, washed with PBS, then western blot; n = 3

binding: binds
Substance: Phospholipid transfer protein (from UniProt P55065 18-493)
